# Results from publication PMC7819943, “Rice protein-binding microarrays: a tool to detect cis-acting elements near promoter regions in rice”.
# This is one part of the list.
# Biological target: T1, OsSMF1 (Oryza sativa, UniProt Q6ZLB0 1-436)
# T1 sequence: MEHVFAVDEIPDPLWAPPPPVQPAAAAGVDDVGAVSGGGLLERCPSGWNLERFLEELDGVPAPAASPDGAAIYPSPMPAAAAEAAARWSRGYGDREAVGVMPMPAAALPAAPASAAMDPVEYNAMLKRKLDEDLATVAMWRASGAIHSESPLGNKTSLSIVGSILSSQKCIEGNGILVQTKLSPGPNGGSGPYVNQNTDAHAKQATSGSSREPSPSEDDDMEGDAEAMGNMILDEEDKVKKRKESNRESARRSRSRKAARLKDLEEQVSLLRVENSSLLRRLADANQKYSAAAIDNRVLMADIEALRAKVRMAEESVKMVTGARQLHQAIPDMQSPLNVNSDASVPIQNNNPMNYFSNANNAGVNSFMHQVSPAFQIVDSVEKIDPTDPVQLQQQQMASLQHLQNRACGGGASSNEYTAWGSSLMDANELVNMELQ
# Assay: protein-binding microarray (RPBM); PBS, 2% BSA, 51.3 ng/ul salmon testes DNA, 50 uM zinc acetate, 200 nM TF, 25 C, 1 h; high values mean tight binding
# Conditions: protein: recombinant; tags: N-terminal polyhistidine and DsRed monomer fusion (pET32a); chain copies: 2; label: CyDye5-dUTP incorporated in the synthesized complementary strand; 3' TTTTT single-stranded linker to array surface; dsDNA, one strand shown
# Summary of the method: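 The binding signal for each feature is its fluorescence intensity in arbitrary units. An Axon 4000B scanner was used to read a custom Agilent array that had been made double-stranded with Cy5-dUTP primer extension, blocked with 2% BSA, incubated at 25 °C for 1 h with 200 nM protein in PBS, 2% BSA, salmon testes DNA and 50 µM zinc acetate, and washed. The protein was an N-terminal polyhistidine–DsRed transcription factor fusion from E. coli BL21-CodonPlus, purified on Ni–NTA.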
row,Sequence,binding signal
1,AAGTCGATCTTATGCTCAATTCTACGCACCGGTGGCAGCCCGGAGTCACCTAGTGCAG,3380 fluorescence intensity (a.u.)
2,TTGATGACTTAATAAAATTTTGACAGTGCTAAAAGTTACCCGGAGTCACCTAGTGCAG,34900 fluorescence intensity (a.u.)
3,AAAAGATTCAATTCCGACCTGGCAAAGCGTCAGCCACTCGCGGAGTCACCTAGTGCAG,4800 fluorescence intensity (a.u.)
4,TATCAACGGGATCTGTCTCCTAAGTAATGACAAACTGAGACGGAGTCACCTAGTGCAG,33000 fluorescence intensity (a.u.)
5,AGATGAGCTGTGAGCTGTGTGTGTGACACAGTCTACTGCTCGGAGTCACCTAGTGCAG,5870 fluorescence intensity (a.u.)
6,CTTGCACGACTCCATGCCGATGACTTAACGAGTTCACGCGCGGAGTCACCTAGTGCAG,3830 fluorescence intensity (a.u.)
7,TTCATAGTTGTGGCACTGACGTATCAGCCGATGAGTCTCACGGAGTCACCTAGTGCAG,3340 fluorescence intensity (a.u.)
8,GCCACCCGTCAAAGGTGACTGGACTCACCAGTGGCCACTGCGGAGTCACCTAGTGCAG,3640 fluorescence intensity (a.u.)
9,GGTTATCATTCTGTTCCAAGTCAATTCTTGCATCAATAACCGGAGTCACCTAGTGCAG,4060 fluorescence intensity (a.u.)
10,CACCGCCGTCGCCTTCGTCCTCCCACCGTGGAAGCCTCGCCGGAGTCACCTAGTGCAG,3400 fluorescence intensity (a.u.)
11,ATGAAGCTCTGACTTCGCTACAGTTGAGAGCAAACGGCGCCGGAGTCACCTAGTGCAG,24500 fluorescence intensity (a.u.)
12,ACGCCCACGCCACGCGTCCCAGTCTCCCTGCATGTGATACCGGAGTCACCTAGTGCAG,5900 fluorescence intensity (a.u.)
13,CACCATGCTAGTTTGTTGTAATAGGAGGGGTCATATTAGTCGGAGTCACCTAGTGCAG,3360 fluorescence intensity (a.u.)
14,GGAGAAGGGGTTCGAGTGAGATAGAATCCGGAGGAGGAGGCGGAGTCACCTAGTGCAG,3180 fluorescence intensity (a.u.)
15,TCAACAAGTTTTGTACACCTCACTCCTGTTGCTTTCGCGTCGGAGTCACCTAGTGCAG,4920 fluorescence intensity (a.u.)
16,GGAGAGTAGAGGCGCCGCCCATTTTGATGAACAGCAGGTGCGGAGTCACCTAGTGCAG,3210 fluorescence intensity (a.u.)
17,GCCGTTTGTAGCTCGGTGACACGTGACGACGTGAGATCCACGGAGTCACCTAGTGCAG,3610 fluorescence intensity (a.u.)
18,ACGTCTGACTCTTATGAGTTCTGACACAGCGAGACCGGGACGGAGTCACCTAGTGCAG,3960 fluorescence intensity (a.u.)
19,ACTACCTACCACATACGCCATCCCAATGTAGCAGGTGGATCGGAGTCACCTAGTGCAG,3310 fluorescence intensity (a.u.)
20,AGTCACTCTGTTTTACATGCACGTAAGATTAGCTTCCAAGCGGAGTCACCTAGTGCAG,4690 fluorescence intensity (a.u.)
21,TTGAAGAGAAAATGTGACGTATCGTCTTCCACCATGTACCCGGAGTCACCTAGTGCAG,5400 fluorescence intensity (a.u.)

row,Sequence,binding signal
1,CCGTGGGCCCCACACGTCAGCCACACTGCAATCACCAGATCGGAGTCACCTAGTGCAG,10700 fluorescence intensity (a.u.)
2,GTTTATATAAAGTCATGAGCTAGCGCCACGCCACACGGACCGGAGTCACCTAGTGCAG,25000 fluorescence intensity (a.u.)
3,AAGGAAGAAATAATCTCTCGTGAGCTCTCATACTCCACACCGGAGTCACCTAGTGCAG,16400 fluorescence intensity (a.u.)
4,GCCCGCGGCTCGGCCCAAAGAACGCGTGTTTGGCCCGGCCCGGAGTCACCTAGTGCAG,3530 fluorescence intensity (a.u.)
5,CGCTCTCCTCAACCCGACGGGACGTGTCACACACTCACACCGGAGTCACCTAGTGCAG,6010 fluorescence intensity (a.u.)
6,GTCCACGCCACTTGATGACACGCTGTCGCCAGCGGAAGTTCGGAGTCACCTAGTGCAG,3140 fluorescence intensity (a.u.)
7,ATATCTCATAACCGTGAAATTATAACGGATGTGTTCAAATCGGAGTCACCTAGTGCAG,19100 fluorescence intensity (a.u.)
8,AATGTCACACCGTGTAATGTCATGTCAGAGGATACGGTTGCGGAGTCACCTAGTGCAG,5710 fluorescence intensity (a.u.)
9,TAACCAAATGGGGTGACTAGGTCAGATAGAGCTGATCAGCCGGAGTCACCTAGTGCAG,3520 fluorescence intensity (a.u.)
10,AGGCTGAGCTTCAAGCTGAAGCTGTGACAAACAGTTCCCTCGGAGTCACCTAGTGCAG,3350 fluorescence intensity (a.u.)
11,ACCGATCTACATCAAATTTGAGGGTAACTTTTATTTCCGCCGGAGTCACCTAGTGCAG,3640 fluorescence intensity (a.u.)
12,GCCTGCCCGGCCACATCATGTTTCCATCGTTGTCCTCCTTCGGAGTCACCTAGTGCAG,5930 fluorescence intensity (a.u.)
13,CCAGGATAAAATAAAGGTTGTATGTTACAAATGTTTGATCCGGAGTCACCTAGTGCAG,42200 fluorescence intensity (a.u.)
14,TCGGATTGACGATAAGAATCTTAAAATTTCCCGGTGTCATCGGAGTCACCTAGTGCAG,3420 fluorescence intensity (a.u.)
15,TGAATACCATGCCAGGTTTGATCATGCCATAATTAGTACGCGGAGTCACCTAGTGCAG,3510 fluorescence intensity (a.u.)
16,AGCGGCGTTGCGAGCCGCATCAACCGCGAGGGCGACGGTGCGGAGTCACCTAGTGCAG,3870 fluorescence intensity (a.u.)
17,CGCATTCGCTCGCCACGCACGACGTCACGCGCGCGGCCGGCGGAGTCACCTAGTGCAG,5620 fluorescence intensity (a.u.)
18,TGAAGGCAAAGGATAGCGCATGGTTGCTGGCAGCCTTAGCCGGAGTCACCTAGTGCAG,3390 fluorescence intensity (a.u.)
19,AAGTGAGCCCAACAATCACAGGTGTGTTGCTTCCATGTTCCGGAGTCACCTAGTGCAG,3560 fluorescence intensity (a.u.)
20,TTGTCATATACTCGTCTCAATCTTAGAACAGTTTTGAGTGCGGAGTCACCTAGTGCAG,3970 fluorescence intensity (a.u.)
21,GTACAGATGAAGAGATTTTAAGTACCGATGACCGTGACTGCGGAGTCACCTAGTGCAG,3250 fluorescence intensity (a.u.)

# Some values from the results shown.
# GTACAGATGAAGAGATTTTAAGTACCGATGACCGTGACTGCGGAGTCACCTAGTGCAG | binding signal: 3250 fluorescence intensity (a.u.)
# TAACCAAATGGGGTGACTAGGTCAGATAGAGCTGATCAGCCGGAGTCACCTAGTGCAG | binding signal: 3520 fluorescence intensity (a.u.)
# AGCGGCGTTGCGAGCCGCATCAACCGCGAGGGCGACGGTGCGGAGTCACCTAGTGCAG | binding signal: 3870 fluorescence intensity (a.u.)
